Drawing on PubChem BioAssay AID2810 (NMMLSC, 2010), this text covers double positive events and percent response (vesicle binding) for 40 compounds.

A short description of this experiment: modulators of CD8 T cell-vesicle binding, confirmation, cherry-picked primary hits, two concentrations (AID 2810).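 As to all read-outs here: lower values mean blocking of vesicle binding.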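 As to percent response (vesicle binding): ratio of mean FL2 vesicle stain of CD8+ cells to that row's control.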 Conditions: 2C CD8+ T cell-vesicle binding, flow cytometry; for double positive events: CD8+/vesicle+ events.
[1] abbreviates: at 15.4 µM, stronger effect = lower value.

This is one part of the list. The main result of the screen is listed elsewhere. These columns were measured beside it and carry no call.

Where the note is “at 7.7 µM”, `O=C1CC(c2ccc(Br)cc2)NC(c2ccc(Br)cc2)C1c1ccccc1` (stereo not given) showed a double positive events of 27.1% and a percent response (vesicle binding) of 172%. Moreover, the double positive events under setting [1] was 10.8%.

As to `CC1CC(NNC(=O)c2ccccc2)=Nc2ccccc2N1C` (stereo not given), where the note is “at 7.7 µM”, the double positive events is 15.1% and the percent response (vesicle binding) was found to be 254%. For the same compound, the double positive events under setting [1] came out at 34%.

Consider `CCCNC(=O)C(Cc1ccccc1F)NC(=O)c1ccccn1` (stereo not given), for which, where the note is “at 7.7 µM”, the double positive events turned out to be 35.6% and the percent response (vesicle binding) was determined as 281%. Besides, the double positive events under setting [1] was 26.4%.

`CC(C)CN(Cc1cc(=O)oc2cc3c(cc12)CCCC3)CC(C)C`: for the setting “at 7.7 µM”, the double positive events is 8.4% and the percent response (vesicle binding) was determined as 95.5%. Under setting [1], this compound registered a double positive events of 27.3%.

`O=C(O)c1cccc2c1C(=O)c1ccc(N3CCCC3)cc1S2(=O)=O`: the double positive events was 37.3% (at 7.7 µM) and 13.4% under setting [1]. For the setting “at 7.7 µM”, this compound displayed a percent response (vesicle binding) of 388%.

As for `Cc1ccc(C)c(OCc2cc(C(=O)N(C)Cc3nccn3C)no2)c1`, the double positive events (at 7.7 µM) amounted to 11% and the double positive events under setting [1] came to 34.9%. Where the note is “at 7.7 µM”, this compound gave a percent response (vesicle binding) of 170%.

With `Cc1ccc(S(=O)(=O)N(C)CC(=O)N2CCc3ccccc32)cc1`, where the note is “at 7.7 µM”, the double positive events was 38.6% and the percent response (vesicle binding) stood at 296%. Besides, the double positive events under setting [1] was 15.7%.

Take `O=C1C2C3c4ccccc4C(c4ccccc43)[C@@H]2C(=O)N1c1cccnc1` (stereo not given in full): where the note is “at 7.7 µM”, the double positive events was 7.7% and the percent response (vesicle binding) was determined as 106%. The compound also returned a double positive events under setting [1] of 27.5%.

Consider `COC(=O)C1=C(C)N(c2cccc(C(C)=O)c2)C(=O)C1`, for which, for the setting “at 7.7 µM”, the double positive events worked out at 12.4% and the percent response (vesicle binding) was found to be 459%. This compound displayed a double positive events under setting [1] of 23.5%.

In the case of `COc1cc(C(=O)OCC(=O)N2CCCC2)cc2c1OCCO2`, the double positive events runs as follows: (at 7.7 µM) 28.6%; under setting [1], 9.7%. Under “at 7.7 µM”, this compound returned a percent response (vesicle binding) of 309%.

Turning to `COCC(C)NC(=O)c1noc2c1CCc1cc(OC)ccc1-2` (stereo not given), under “at 7.7 µM”, the double positive events was determined as 11.8% and the percent response (vesicle binding) worked out at 182%. The double positive events under setting [1] turned out to be 23.6%.

Take `COc1cc(/C=C(/C#N)c2ccccc2F)ccc1OCc1ccccc1`: under “at 7.7 µM”, the double positive events stood at 15% and the percent response (vesicle binding) was found to be 128%. The same compound registered a double positive events under setting [1] of 19.4%.

For the compound `CCn1cc(CN(C)C(=O)/C=C/c2ccc([N+](=O)[O-])cc2)c(C)n1`, the double positive events (at 7.7 µM) was found to be 18.8% and the double positive events under setting [1] was 7%. The same compound displayed a percent response (vesicle binding) (at 7.7 µM) of 170%.

For the setting “at 7.7 µM”, `CC(C)c1ccc(S(=O)(=O)N2CCC3(CC2)OCCO3)cc1` yielded a double positive events of 12.8% and a percent response (vesicle binding) of 131%. Also, the double positive events under setting [1] was found to be 7.5%.

Regarding `O=C(NNC(=O)c1ccc(-n2cncn2)c([N+](=O)[O-])c1)c1ccccc1`, where the note is “at 7.7 µM”, the double positive events was determined as 38.9% and the percent response (vesicle binding) amounted to 433%. The same compound showed a double positive events under setting [1] of 12.8%.

Where the note is “at 7.7 µM”, `CCOC(=O)c1nnn(-c2nonc2-n2cccc2)c1CN1CCC(C(=O)OCC)CC1` returned a double positive events of 26% and a percent response (vesicle binding) of 183%. This compound showed a double positive events under setting [1] of 24.1%.

Under “at 7.7 µM”, `COCCn1c(C)cc(C(=O)CSc2nnc(C3CC3)n2C2CC2)c1C` gave a double positive events of 28.6% and a percent response (vesicle binding) of 128%. For the same compound, the double positive events under setting [1] was 6.3%.

Take `CC1CN(C2=CC(=O)CCC2)CC(C)O1` (stereo not given): under “at 7.7 µM”, the double positive events is 12.8% and the percent response (vesicle binding) was 181%. For the same compound, the double positive events under setting [1] was 13.7%.

With `Cn1ncc(Br)c1C(=O)N1CCCCCC1`, for the setting “at 7.7 µM”, the double positive events is 11.2% and the percent response (vesicle binding) came to 153%. The same compound displayed a double positive events under setting [1] of 8.7%.

As to `C=C(C)CSc1cc(C)nc2c(-c3ccccc3)c(C)nn12`, the double positive events turned out to be 13.6% (at 7.7 µM) and 24.8% under setting [1]. Further, the percent response (vesicle binding) (at 7.7 µM) was found to be 409%.

As to `Cc1ccc(NC(=O)CN2C(=O)N/C(=C/c3ccc(C)s3)C2=O)cc1`, under “at 7.7 µM”, the double positive events amounted to 35.7% and the percent response (vesicle binding) came out at 424%. The double positive events under setting [1] is 14.1%.

With `C/C(=N\NC(=O)c1ccc(C(=O)N/N=C(\C)c2ccco2)o1)c1ccco1`, the double positive events by setting is: (at 7.7 µM) 23.4%; under setting [1], 20.3%. For the same compound, the percent response (vesicle binding) (at 7.7 µM) was 243%.

Consider `Cc1ccc2sc(C)[n+](CCC(C)S(=O)(=O)[O-])c2c1` (stereo not given), for which, under “at 7.7 µM”, the double positive events turned out to be 8% and the percent response (vesicle binding) is 176%. Moreover, the double positive events under setting [1] turned out to be 22.4%.

As for `COc1ccccc1N1CCN(C(=O)C2CCCN(S(=O)(=O)c3ccc(C)cc3)C2)CC1` (stereo not given), under “at 7.7 µM”, the double positive events turned out to be 27.6% and the percent response (vesicle binding) was determined as 196%. The compound further came in with a double positive events under setting [1] of 17.8%.

For the setting “at 7.7 µM”, `O=C(Cc1cccs1)Nc1cc(S(=O)(=O)N2CCCCC2)ccc1Cl` returned a double positive events of 10.9% and a percent response (vesicle binding) of 385%. The same compound returned a double positive events under setting [1] of 12%.

`Cc1cc(SC(C)C(=O)NCC(=O)Nc2ccc(F)c(F)c2F)nc2ccccc12` (stereo not given): for the setting “at 7.7 µM”, the double positive events was found to be 21.4% and the percent response (vesicle binding) came to 411%. This compound also registered a double positive events under setting [1] of 22%.

In turn, `COc1ccc(C(CNCC(=O)Nc2ccccc2F)N(C)C)cc1` (stereo not given) showed a double positive events (at 7.7 µM) of 9.9% and a double positive events under setting [1] of 21.4%. The compound also came in with a percent response (vesicle binding) (at 7.7 µM) of 154%.

Take `CC1CCC(C(C)C)C(OC(=O)COC(=O)c2cc(O)ccc2N)C1` (stereo not given): under “at 7.7 µM”, the double positive events was 16.7% and the percent response (vesicle binding) turned out to be 284%. Further, under setting [1], the double positive events is 14.3%.

Where the note is “at 7.7 µM”, `CCOc1cccc(C(=O)Nc2ccccc2N2CCN(C(=O)C(C)C)CC2)c1` had a double positive events of 11.7% and a percent response (vesicle binding) of 243%. For the same compound, the double positive events under setting [1] stood at 14.6%.

For the setting “at 7.7 µM”, `Cc1ccccc1NS(=O)(=O)c1ccc(NC(=O)CSCc2ccc(Br)cc2)cc1` returned a double positive events of 8.1% and a percent response (vesicle binding) of 308%. This compound also came in with a double positive events under setting [1] of 26%.

Where the note is “at 7.7 µM”, `CCOC(=O)CSc1nc(COc2ccccc2)nc2ccccc12` gave a double positive events of 12% and a percent response (vesicle binding) of 198%. Further, under setting [1], the double positive events came to 12.3%.

In the case of `CN(CC(=O)Nc1cc(S(=O)(=O)N2CCCC2)ccc1Cl)Cc1ccc2c(c1)OCO2`, for the setting “at 7.7 µM”, the double positive events was found to be 26.3% and the percent response (vesicle binding) came out at 403%. The compound also came in with a double positive events under setting [1] of 8.1%.

Consider `COc1cc(C(=O)NC(=S)Nc2ccc3oc(=O)ccc3c2)cc(OC)c1OC`, for which, for the setting “at 7.7 µM”, the double positive events is 28.6% and the percent response (vesicle binding) amounted to 312%. Also, under setting [1], the double positive events is 24.3%.

Turning to `O=C(CCc1nc2ccccc2c(=O)[nH]1)N1CCCc2ccccc21`, under “at 7.7 µM”, the double positive events turned out to be 16.5% and the percent response (vesicle binding) amounted to 183%. Moreover, the double positive events under setting [1] came to 35.1%.

For `C[C@H](CO)N1C[C@H](C)[C@@H](CN(C)C(=O)Nc2ccc(C(F)(F)F)cc2)Oc2c(NC(=O)Nc3ccccc3)cccc2C1=O`, for the setting “at 7.7 µM”, the double positive events is 13.5% and the percent response (vesicle binding) turned out to be 328%. This compound returned a double positive events under setting [1] of 11%.

Take `O=C(COC(=O)c1cncc(Br)c1)Nc1ccc(N2CCCCC2)cc1`: where the note is “at 7.7 µM”, the double positive events was found to be 8.7% and the percent response (vesicle binding) was determined as 383%. Besides, the double positive events under setting [1] amounted to 10.2%.

Where the note is “at 7.7 µM”, `O=C(NCC(c1cccs1)N1CCc2ccccc21)c1ccccc1` (stereo not given) showed a double positive events of 18.4% and a percent response (vesicle binding) of 224%. This compound came in with a double positive events under setting [1] of 19.6%.

Take `C=CCN1C(=O)C(Cc2ccc(F)cc2)S/C1=N/N=C/c1ccco1` (stereo not given): where the note is “at 7.7 µM”, the double positive events was 21.6% and the percent response (vesicle binding) amounted to 296%. Under setting [1], this compound displayed a double positive events of 31.5%.

Take `CCc1c(C)sc(NC(=O)c2cc(-c3cc(OC)ccc3OC)on2)c1C#N`: where the note is “at 7.7 µM”, the double positive events is 17% and the percent response (vesicle binding) came to 141%. This compound yielded a double positive events under setting [1] of 22.6%.

`COC(=O)N/N=C/c1cn(CC(C)COc2ccccc2)c2ccccc12` (stereo not given): under “at 7.7 µM”, the double positive events worked out at 15.6% and the percent response (vesicle binding) was determined as 153%. Under setting [1], this compound showed a double positive events of 13.6%.
